Measured values taken from article PMC3244446, “Soluble CD44 Interacts with Intermediate Filament Protein Vimentin on Endothelial Cell Surface” (PLoS ONE, 2011).
No constants are given. Whether binding was seen depends on the method and setting. In cells and extracts the contact can be indirect. A yes stands for co-enrichment or nearness to the bait. Other partners may have been found.

By UniProt entry, the sequences of proteins in these tests, tags left out. Where a name states a change or a piece, a line headed by the entry shows the natural chain unless it says otherwise. Chains listed by the source or under a name are the forms on record and can include a tag or linker.
GST-tagged CD44HABD^R41AR78SY79S (CD443MUT), non-HA-binding triple mutant (P16070, form named): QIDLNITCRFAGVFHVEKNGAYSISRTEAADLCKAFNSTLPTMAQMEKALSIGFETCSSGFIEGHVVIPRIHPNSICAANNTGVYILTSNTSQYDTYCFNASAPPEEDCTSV
UniProt P08670: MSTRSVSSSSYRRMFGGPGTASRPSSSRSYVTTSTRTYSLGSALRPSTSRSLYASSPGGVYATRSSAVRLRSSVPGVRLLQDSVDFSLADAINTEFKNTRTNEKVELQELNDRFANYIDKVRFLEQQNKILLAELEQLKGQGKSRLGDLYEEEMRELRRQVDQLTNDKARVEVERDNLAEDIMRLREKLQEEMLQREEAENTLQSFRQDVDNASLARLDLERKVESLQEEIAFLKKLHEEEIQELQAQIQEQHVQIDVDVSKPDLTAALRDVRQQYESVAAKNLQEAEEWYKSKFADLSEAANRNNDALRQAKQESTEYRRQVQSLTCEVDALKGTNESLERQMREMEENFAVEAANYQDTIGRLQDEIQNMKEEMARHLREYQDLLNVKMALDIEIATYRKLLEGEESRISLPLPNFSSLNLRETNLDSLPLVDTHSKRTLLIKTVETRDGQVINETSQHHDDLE

Target: GST-tagged CD44HABD^R41AR78SY79S (CD443MUT), non-HA-binding triple mutant (human) (UniProt P16070)
Experiment: affinity purification with mass spectrometry; GST-CD443MUT on glutathione beads, CHAPS-solubilised HUVEC lysate, overnight 4°C; elution with reduced glutathione, SDS-PAGE, silver staining, band identified by MALDI-TOF MS; only the target purified

binding: binds
Substance: endogenous vimentin of HUVEC (from UniProt P08670 1-466)
